The experiment concerns the target wild-type ALKBH5-FLAG (UniProt Q6P6C2). Kind of experiment: affinity purification with mass spectrometry; wild-type ALKBH5 or K235R plasmid cotransfected with the KAT8 vector into ALKBH5 KO HeLa cells; co-IPed complexes, silver-stained gel bands identified by nano-LC-MS/MS.

Protein sequences, listed by entry. Tags and fused reporters are not part of them.
UniProt Q6P6C2: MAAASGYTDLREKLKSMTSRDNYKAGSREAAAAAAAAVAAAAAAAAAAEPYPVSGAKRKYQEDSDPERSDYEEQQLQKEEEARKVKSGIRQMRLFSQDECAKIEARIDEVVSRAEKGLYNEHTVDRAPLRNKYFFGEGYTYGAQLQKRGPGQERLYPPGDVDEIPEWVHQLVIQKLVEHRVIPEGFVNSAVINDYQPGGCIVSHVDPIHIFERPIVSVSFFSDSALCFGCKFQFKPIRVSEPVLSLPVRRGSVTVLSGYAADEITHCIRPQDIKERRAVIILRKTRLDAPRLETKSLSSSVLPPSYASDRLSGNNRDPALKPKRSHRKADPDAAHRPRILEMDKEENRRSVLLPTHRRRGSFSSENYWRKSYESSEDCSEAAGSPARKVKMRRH

These are yes or no findings as the source states them, for the method shown. In cells and extracts the contact can be indirect. These calls come from enrichment with a bait or labelling near it, and not all partners need be listed.

B1: endogenous PSPC1 (protein, UniProt Q8WXF1 1-523)
chain: MMLRGNLKQVRIEKNPARLRALESAVGESEPAAAAAMALALAGEPAPPAPAPPEDHPDEEMGFTIDIKSFLKPGEKTYTQRCRLFVGNLPTDITEEDFKRLFERYGEPSEVFINRDRGFGFIRLESRTLAEIAKAELDGTILKSRPLRIRFATHGAALTVKNLSPVVSNELLEQAFSQFGPVEKAVVVVDDRGRATGKGFVEFAAKPPARKALERCGDGAFLLTTTPRPVIVEPMEQFDDEDGLPEKLMQKTQQYHKEREQPPRFAQPGTFEFEYASRWKALDEMEKQQREQVDRNIREAKEKLEAEMEAARHEHQLMLMRQDLMRRQEELRRLEELRNQELQKRKQIQLRHEEEHRRREEEMIRHREQEELRRQQEGFKPNYMENREQEMRMGDMGPRGAINMGDAFSPAPAGNQGPPPMMGMNMNNRATIPGPPMGPGPAMGPEGAANMGTPMMPDNGAVHNDRFPQGPPSQMGSPMGSRTGSETPQAPMSGVGPVSGGPGGFGRGSQGGNFEGPNKRRRY
With B1, the binding result is reported as “binds”.

Values taken from publication PMC10300122.
